# Results from one PubChem assay

The results are deposited in PubChem (AID912; NCATS, 2007).

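A cell-based FRET test of anthrax lethal toxin entry, tracked through the 460 nm emission signal; the cell line is not named here.
Each compound was tested as a concentration series from about 0.0005 to 40 µM.
The number is the fitted AC50 of the 460 nm signal alone; lower values mean a more potent effect. A falling signal goes with compounds filed as inhibitors or cytotoxic, a rising one with activators or fluorescent compounds (inferred from the filed classes).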

Values are in µM.
Common to all entries: measured here: 460 nm channel.
This is a side read-out of the assay, for part of the compounds, not drawn at random.
A potency from a partial, single-point or poor curve is only a rough figure.
The first word of each remark tells which way the curve ran; it can be opposite to the aim of the assay.

SMILES | AC50 (µM) | curve as filed
COc1ccc(O)c(-c2[nH]ncc2C(=O)c2ccccc2)c1 | 31.62 | falling, single point
N#CCCn1c(=O)c(-c2ccc(F)cc2)nc2cnc(OCc3ccccc3)nc21 | 25.12 | rising, partial curve, poor fit
c1csc(-c2noc(COc3ccc4c(c3)CCCC4)n2)c1 | 25.12 | falling, single point
Cc1ccc(OCc2ccoc2C(=O)O)cc1C | 0.1995 | falling, single point
CC(C)CC(N(C)C)C1(c2ccc(Cl)cc2)CCC1 (stereo not drawn) | 31.62 | falling, single point
CN1CCN(CCCN2c3ccccc3Sc3ccc(Cl)cc32)CC1 | 25.12 | falling, partial curve
Cc1ccn(CC(=O)O)c(=O)c1 | 0.5012 | rising, single point
O=C1CN(/N=C/c2ccc([N+](=O)[O-])o2)C(=O)N1 | 1.259 | falling, full curve, poor fit
CCC(C)NCC(=O)Nc1ccc(-c2nc3cc(NC(=O)CNC(C)CC)ccc3o2)cc1 (stereo not drawn) | 0.07943 | falling, full curve, poor fit
CCC(C)(C)N=C(NC#N)Nc1cccnc1 | 12.59 | falling, partial curve
CCOc1ccc(S(=O)(=O)N(CC(=O)N2CCc3ccccc32)Cc2ccco2)cc1 | 2.512 | falling, partial curve
O=C(CCN1CCN(c2ccccc2F)CC1)c1ccc(Br)cc1 | 6.31 | falling, partial curve
Cn1cc(C(=O)C(=O)N[C@H]2CN3CCC2CC3)c2ccccc21 | 1 | falling, full curve, poor fit
Cc1cc(SCC(=O)c2ccccc2)n2nc(C)nc2n1 | 19.95 | rising, single point
S=c1[nH]nc(-c2cccnc2)o1 | 0.7943 | falling, partial curve, poor fit
COc1cccc(C2=NOC(C(=O)Nc3cc(OC)c(OC)c(OC)c3)C2)c1 (stereo not drawn) | 15.85 | rising, partial curve
COc1ccc(CCNc2nc(-c3ccco3)cc(C(F)(F)F)n2)cc1OC | 5.012 | falling, partial curve
Cn1c(SCc2ccc(C#N)cc2Cl)nc2ccccc21 | 3.162 | falling, partial curve, poor fit
O=C(Nc1ccccc1)N1CCC2(CC1)CCN(C(=O)c1ccco1)CC2 | 12.59 | rising, single point
COc1ccc2c(c1)nc1n2CN(CC2CCCO2)CN1Cc1ccccc1 (stereo not drawn) | 0.1259 | falling, full curve, poor fit
CCNc1ncc2nc(-c3cccc(C#N)c3)c(=O)n(Cc3cccc(OC)c3)c2n1 | 0.1 | rising, full curve
COc1ccc(-c2nc3cnc(OC)nc3n(Cc3cccc(OC)c3)c2=O)cc1 | 6.31 | rising, partial curve, poor fit
CC1(c2ccccc2)CC(c2ccccc2)=Nc2nonc2N1 (stereo not drawn) | 1.995 | falling, single point
COc1ccc(-c2cc3nc(-c4ccccc4)cc(N4CCC5(CC4)OCCO5)n3n2)cc1 | 12.59 | rising, partial curve
COc1ccc(Cn2nnnc2C(c2ccccn2)N2CCN(c3cc(Cl)ccc3C)CC2)cc1 (stereo not drawn) | 12.59 | falling, partial curve
CCC(C)NC(=O)c1c(N)n(/N=C/c2cccnc2)c2nc3ccccc3nc12 (stereo not drawn) | 0.01 | rising, full curve, poor fit
COC(=O)[C@@]1(Cc2ccc(OC)cc2)[C@H]2c3cc(C(=O)N4CCCC4)n(Cc4ccccn4)c3C[C@H]2CN1C(=O)c1ccccc1 | 25.12 | rising, partial curve
O=C(OCc1cc2ccccc2[nH]c1=O)C1CCCCC1 | 0.05012 | falling, full curve
O=C1CC(c2ccco2)Cc2nc(N3CCc4ccccc4C3)ncc21 (stereo not drawn) | 7.943 | rising, partial curve
COc1ccc(-c2cc(C(F)(F)F)nc(SCC(N)=O)n2)cc1 | 5.012 | rising, single point
CCc1ccc(CCC(=O)Nc2nnc(CC)s2)o1 | 1.995 | rising, partial curve
CCOC(=O)C1CCCN(C(=O)c2cnn3c(C(F)(F)F)cc(-c4ccccc4)nc23)C1 (stereo not drawn) | 12.59 | rising, single point
CCC(=O)Nc1nc2ccccc2n1Cc1ccccc1 | 0.1 | falling, full curve
CC1CCCCN1CCNC(=O)c1cc2c(=O)n(C)c3ccccc3c2n1C (stereo not drawn) | 2.512 | falling, full curve
O=C1CSc2ccc(C(=O)N3CCN(c4ccccn4)CC3)cc2N1 | 5.012 | rising, single point
c1ccc(CCN2CCOCC2)nc1 | 0.003981 | falling, full curve, poor fit
CO[C@]1(C2=NCCN2)COc2ccccc2O1 | 15.85 | falling, partial curve, poor fit
OCCN(CCO)c1nc(N2CCCCC2)c2nc(N(CCO)CCO)nc(N3CCCCC3)c2n1 | 0.001259 | rising, full curve, poor fit
CC(C)N(CCC(=O)c1ccc2ccccc2c1)Cc1ccccc1 | 5.012 | falling, full curve
CCCCn1c(N)c(C(=O)OCC2CCCO2)c2nc3ccccc3nc21 (stereo not drawn) | 0.7943 | rising, partial curve
O=C(c1ccc(=O)oc1)N1CCCc2ccccc21 | 1.259 | falling, partial curve
CCOc1ccc(-c2nc(C#N)c(N3CCN(Cc4ccccc4)CC3)o2)cc1 | 15.85 | falling, partial curve
CN1CCN(c2nc3ccccc3nc2C(C#N)C(=O)OC2CCCCC2)CC1 (stereo not drawn) | 0.3981 | rising, full curve, poor fit
C(=N\c1nc2ccccc2n1CCN1CCCCC1)/c1ccc2c(c1)OCO2 | 3.981 | rising, full curve
Cc1nn(C(C)(C)C)c(OC(=O)c2cccs2)c1S(=O)(=O)c1ccccc1 | 7.943 | falling, partial curve
CN1CCN(c2ncc3nc(-c4cc(F)cc(F)c4)c(=O)n(CCC#N)c3n2)CC1 | 12.59 | rising, partial curve
Cc1cc2n(n1)C(c1ccccc1)Nc1ccccc1-2 (stereo not drawn) | 0.005012 | falling, full curve, poor fit
NC(=NCCc1ccc(I)cc1)SCCCc1cnc[nH]1 | 15.85 | falling, partial curve
COCCn1c(=O)c(-c2ccccc2)nc2cnc(N3CCN(C)CC3)nc21 | 10 | rising, partial curve
Cc1cccc(NC(=O)Cn2cnc3ccc(S(=O)(=O)N4CCC(C)CC4)cc3c2=O)n1 | 6.31 | rising, partial curve
O=c1cc(-c2ccccc2O)oc2c(O)c(O)ccc12 | 0.7943 | falling, full curve
CC(C)Cc1nc2oc3c(NCc4cccnc4)ncnc3c2c2c1CCC2 | 5.012 | rising, single point
COc1ccc(OC)c(C(=O)COC(=O)c2cc(C)oc2C)c1 | 12.59 | falling, partial curve, poor fit
COc1ccc(-c2nc3cnc(N(C)C)nc3n(CCC#N)c2=O)cc1 | 7.943 | rising, partial curve